Source: publication PMC9424243, “Structure of a nucleosome-bound MuvB transcription factor complex reveals DNA remodelling” (Nature Communications, 2022)
These are yes or no findings as the source states them, for the method shown. Some entries that bind do so weakly or less than the wild type.

Sequences of proteins named here, by UniProt entry; tags and fusion partners are left off. A change or cut given only in a name is not applied to a line headed by its entry.
UniProt Q09028: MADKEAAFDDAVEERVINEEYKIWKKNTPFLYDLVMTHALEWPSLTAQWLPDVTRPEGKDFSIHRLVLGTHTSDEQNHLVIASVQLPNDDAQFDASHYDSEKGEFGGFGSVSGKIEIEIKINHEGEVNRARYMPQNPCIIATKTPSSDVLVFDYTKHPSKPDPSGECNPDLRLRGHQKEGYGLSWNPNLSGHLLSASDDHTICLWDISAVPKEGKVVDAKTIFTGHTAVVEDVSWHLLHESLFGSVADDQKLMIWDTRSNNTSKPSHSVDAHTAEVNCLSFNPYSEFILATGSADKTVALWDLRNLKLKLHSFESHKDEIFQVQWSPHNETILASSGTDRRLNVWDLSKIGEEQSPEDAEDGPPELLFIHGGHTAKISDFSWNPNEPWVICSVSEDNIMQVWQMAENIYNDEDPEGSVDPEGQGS
UniProt P10244: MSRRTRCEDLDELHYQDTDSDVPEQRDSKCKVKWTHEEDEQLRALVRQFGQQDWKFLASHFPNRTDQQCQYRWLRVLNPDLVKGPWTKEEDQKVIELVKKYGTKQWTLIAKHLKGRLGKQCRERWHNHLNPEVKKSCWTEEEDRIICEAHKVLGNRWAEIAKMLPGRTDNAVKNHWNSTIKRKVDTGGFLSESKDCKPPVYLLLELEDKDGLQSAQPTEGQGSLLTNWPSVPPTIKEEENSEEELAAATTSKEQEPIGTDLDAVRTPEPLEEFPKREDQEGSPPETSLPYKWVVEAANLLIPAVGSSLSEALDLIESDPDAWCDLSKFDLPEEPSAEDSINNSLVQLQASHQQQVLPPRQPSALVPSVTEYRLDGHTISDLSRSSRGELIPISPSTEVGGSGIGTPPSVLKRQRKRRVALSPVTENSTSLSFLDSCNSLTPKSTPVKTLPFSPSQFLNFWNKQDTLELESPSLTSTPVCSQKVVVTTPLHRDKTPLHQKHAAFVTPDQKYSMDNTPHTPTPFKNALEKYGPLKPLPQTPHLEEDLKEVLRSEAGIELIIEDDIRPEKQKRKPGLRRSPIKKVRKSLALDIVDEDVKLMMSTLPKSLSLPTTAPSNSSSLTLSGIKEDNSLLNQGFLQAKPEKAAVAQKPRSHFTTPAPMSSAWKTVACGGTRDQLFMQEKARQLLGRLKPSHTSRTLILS

Assays:
LIN52^FL(1–116) (human) [1] = target: LIN52^FL(1–116) (human) (UniProt Q52LA3); assay: cryo-EM structure; MMB^core:NCP167 mixed at 2.5:1, GraFix (glutaraldehyde, sucrose gradient); nucleosome at 3.3 Å, MuvB^HEAD 7.5 Å and MuvB^TAIL 8.7 Å, known structures fitted; both purified
[2] = target: RbBP4^FL(1–425) with StrepII x2 tag (of the MuvB ΔLIN37 complex) (human) (UniProt Q09028); assay: mass photometry; purified co-expressed complex diluted from 500 nM just before measurement; 20 mM HEPES pH 8, 150 mM NaCl, 0.5 mM TCEP; both purified
LIN37^FL(1–246) [3] = target: T1, LIN37^FL(1–246) (human, UniProt Q96GY3 1-246); assay: cross-linking; DSSO cross-linking mass spectrometry of 28 μM purified MuvB complex, 10 min on ice, monomeric SEC fraction analysed; both purified
T1 construct: LIN37, human, residues 1-246 (LIN37^FL), codon optimised CDS; Carries the StrepII x2 tag by which the MuvB complexes were purified; the tag was removed with 3C protease before the final SEC; also called FL-LIN37; source: Hi-5 insect cells co-infected with MuvB baculoviruses; purified as part of the complex (Strep-Tactin, 3C protease, SEC)
T1 sequence (looked up): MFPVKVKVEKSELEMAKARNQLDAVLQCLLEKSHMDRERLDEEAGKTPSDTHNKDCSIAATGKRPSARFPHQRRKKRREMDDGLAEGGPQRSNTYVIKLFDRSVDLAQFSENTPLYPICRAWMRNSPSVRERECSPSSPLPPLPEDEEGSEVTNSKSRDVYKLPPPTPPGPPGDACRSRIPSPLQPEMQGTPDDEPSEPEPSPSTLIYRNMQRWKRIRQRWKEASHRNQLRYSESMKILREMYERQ

LIN37^FL(1–246) [4] = target: T1, LIN37^FL(1–246); assay: SEC; subunits co-expressed in Hi-5 cells; complex held on Strep-Tactin by StrepII x2 on LIN37, washed with 1000 mM NaCl, tag cut with 3C, then SEC (S200 or Superose 6) in 20 mM HEPES pH 8, 150 mM NaCl, 0.5 mM TCEP
LIN9^FL(1–542) = target: T2, LIN9^FL(1–542) (human, UniProt Q5TKA1 1-542); assay: cryo-EM structure; MMB^core:NCP167 mixed at 2.5:1, GraFix (glutaraldehyde, sucrose gradient); nucleosome at 3.3 Å, MuvB^HEAD 7.5 Å and MuvB^TAIL 8.7 Å, known structures fitted; both purified
T2 construct: LIN9, human, residues 1-542 (LIN9^FL), codon optimised CDS; Subunit of the co-expressed MuvB, MuvB^core and MMB^core complexes; only DIRP and tudor domains are built in PDB 7R1D; source: Hi-5 insect cells co-infected with MuvB baculoviruses; purified as part of the complex (Strep-Tactin, 3C protease, SEC)
T2 sequence (looked up): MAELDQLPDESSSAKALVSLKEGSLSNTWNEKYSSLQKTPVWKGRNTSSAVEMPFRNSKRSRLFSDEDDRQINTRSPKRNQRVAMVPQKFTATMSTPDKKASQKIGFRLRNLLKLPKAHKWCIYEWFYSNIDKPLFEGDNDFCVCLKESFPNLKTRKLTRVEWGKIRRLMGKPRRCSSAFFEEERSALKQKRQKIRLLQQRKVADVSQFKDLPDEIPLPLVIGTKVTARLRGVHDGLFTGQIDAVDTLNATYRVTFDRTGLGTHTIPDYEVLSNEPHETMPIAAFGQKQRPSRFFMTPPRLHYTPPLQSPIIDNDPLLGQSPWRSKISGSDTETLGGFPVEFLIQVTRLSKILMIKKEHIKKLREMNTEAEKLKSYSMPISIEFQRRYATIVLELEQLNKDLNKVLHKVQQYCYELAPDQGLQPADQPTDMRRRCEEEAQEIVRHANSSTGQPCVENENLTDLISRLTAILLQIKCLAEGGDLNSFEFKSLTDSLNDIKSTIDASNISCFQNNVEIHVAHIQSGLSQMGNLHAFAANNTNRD

LIN52^FL(1–116) (human) [5] = target: LIN52^FL(1–116) (human) (UniProt Q52LA3); assay: cross-linking; DSSO cross-linking mass spectrometry of 28 μM purified MuvB complex, 10 min on ice, monomeric SEC fraction analysed; both purified

With “B-MYB^FL(1–700) (from UniProt P10244 1-700)” the binding (LIN52^FL(1–116) (human) [1]) was “binds”.

B1: LIN52^FL(1–116) (natural protein, human, UniProt Q52LA3 1-112, looked up)
chain: MASPTDGTDLEASLLSFEKLDRASPDLWPEQLPGVAEFAASFKSPITSSPPKWMAEIERDDIDMLKELGSLTTANLMEKVRGLQNLAYQLGLDESREMTRGKFLNILEKPKK
notes: LIN52, human, residues 1-116 (LIN52^FL), codon optimised CDS; source: Hi-5 insect cells co-infected with MuvB baculoviruses; purified as part of the complex (Strep-Tactin, 3C protease, SEC)
B1 was tested, and the binding [2] was “binds”, the binding (LIN37^FL(1–246) [3]) was “binds” and the binding (LIN37^FL(1–246) [4]) was “binds”. The binding (LIN9^FL(1–542)) was “binds”.

B2: LIN54^short(515–749) (domain or fragment, human, UniProt Q6MZP7 515-749, looked up)
chain: SESASRPRKPCNCTKSLCLKLYCDCFANGEFCNNCNCTNCYNNLEHENERQKAIKACLDRNPEAFKPKIGKGKEGESDRRHSKGCNCKRSGCLKNYCECYEAKIMCSSICKCIGCKNFEESPERKTLMHLADAAEVRVQQQTAAKTKLSSQISDLLTRPTPALNSGGGKLPFTFVTKEVAEATCNCLLAQAEQADKKGKSKAAAERMILEEFGRCLMSVINSAGKAKSDPCAMNC
notes: LIN54, human, residues 515-749 (non-conserved N-terminus removed), codon optimised CDS; also called short version of LIN54; source: Hi-5 insect cells co-infected with MuvB baculoviruses; purified as part of the complex (Strep-Tactin, 3C protease, SEC)
In the case of B2, the binding (LIN52^FL(1–116) (human) [5]) is reported as “binds”.
